Results published in publication PMC5491494.
Results are given in words; binding and its absence hold for the method and conditions named. Binding seen in cells or lysates may run through a third protein. Some results given as binding are weak or reduced against the parent protein; the word gives no strength.

Chains of the proteins cited; added tags and fusions are not shown.
UniProt Q921F2: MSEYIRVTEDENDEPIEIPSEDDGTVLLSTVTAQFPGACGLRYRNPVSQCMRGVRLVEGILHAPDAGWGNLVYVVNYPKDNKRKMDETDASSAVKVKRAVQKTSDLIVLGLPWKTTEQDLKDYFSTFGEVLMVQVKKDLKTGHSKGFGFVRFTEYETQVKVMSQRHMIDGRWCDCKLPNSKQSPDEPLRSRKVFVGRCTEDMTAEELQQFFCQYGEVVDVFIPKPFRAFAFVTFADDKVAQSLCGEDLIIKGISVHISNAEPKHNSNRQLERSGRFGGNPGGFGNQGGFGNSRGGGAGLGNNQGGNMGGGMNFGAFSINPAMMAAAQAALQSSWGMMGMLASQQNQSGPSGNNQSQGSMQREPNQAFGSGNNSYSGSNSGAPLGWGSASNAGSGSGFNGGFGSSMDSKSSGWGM

Biological target: TDP-43, endogenous mouse (mouse (endogenous in mouse brain slices)) (UniProt Q921F2)
Experiment: cross-linking; in situ 1 mM DSG on minced human brain tissue (cerebellum, motor cortex) or mouse organotypic brain slices (control or 0.25 mM arsenite for 2 h), 37 °C, 30 min, quenched with 20 mM Tris; nucleo-cytoplasmic fractionation; immunoblot

binding: binds
Substance: TDP-43, endogenous mouse (from UniProt Q921F2 1-414)
